For two molecules, binding results are on record in publication PMC7658486.

Results are given in words; binding and its absence hold for the method and conditions named. For part of these data: Tags and fused reporters may be left off the sequences shown.

Test in all cases: flow cytometry on cells; live HEK293T cells co-transfected for a FLAG-tagged cytokine and a full-length (transmembrane) receptor alpha chain; two days after transfection stained with anti-FLAG M2 mAb; cytokine considered bound if the percentage of anti-FLAG-labeled cells was higher than in cells transfected for the cytokine alone
A general note: Flow cytometry measures light scatter and fluorescence of single cells or particles in a stream.

Experiment [1] addresses T1, bovine (full-length) IL-2Rα (cattle (Bos taurus)) (UniProt P12342).
T1 sequence: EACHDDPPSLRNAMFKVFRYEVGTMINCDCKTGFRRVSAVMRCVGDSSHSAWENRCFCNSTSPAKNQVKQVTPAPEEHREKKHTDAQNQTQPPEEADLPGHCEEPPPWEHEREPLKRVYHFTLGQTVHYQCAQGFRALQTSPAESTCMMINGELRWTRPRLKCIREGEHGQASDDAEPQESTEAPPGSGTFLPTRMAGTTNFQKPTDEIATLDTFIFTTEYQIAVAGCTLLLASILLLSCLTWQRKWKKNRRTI

Experiment [2] deals with trout (full-length) IL-15Rα (rainbow trout (Oncorhynchus mykiss)).
Experiment [3] has as its target bovine (full-length) IL-15Rα (cattle (Bos taurus)).

Consider “bovine IL-15L, FLAG-tagged (cattle (Bos taurus)) (ligand)”, for which, in experiment [1], the binding result is recorded as “no binding”.

B1: bovine IL-2, FLAG-tagged (ligand, UniProt P05016 21-155)
chain: APTSSSTGNTMKEVKSLLLDLQLLLEKVKNPENLKLSRMHTFDFYVPKVNATELKHLKCLLEELKLLEEVLNLAPSKNLNPREIKDSMDNIKRIVLELQGSETRFTCEYDDATVNAVEFLNKWITFCQSIYSTMT
B1: the binding result in experiment [2] and in experiment [3] was “no binding” each time.
